# Measurements: PubChem BioAssay AID504444 (National Center for Advancing Translational Sciences (NCATS), 2011)
# The whole screen tested about 360,000 compounds, of which about 7,500 (2.1%) were called active. The inconclusive results got no clear call from the source; some entries with a clear call stand among them for comparison. Calls come from the whole dose curve; as a rule, active = well fitted inhibition curve with a large enough effect; inconclusive = small, poorly fitted or top-dose-only effect, or effect the other way; inactive = flat fitted curve, though single readings scatter. A potency beside an inconclusive call is a rough fit, not a confirmed value.
# Assay: Nrf2 qHTS screen for inhibitors; note: nearly all actives have a fitted effect of over 60% in size
# Details: A549 ARE-Fluc reporter, luciferase luminescence, 18-24 h; activity change, negative = inhibition: at 46 µM (top of the series)
# Outline: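 A549 ARE_Fluc cells, 5000/well, 5% FBS OPTI-MEM; compounds in dose-response, 18-24 h at 37 °C/5% CO2; CellTiter-Fluor viability read (Ex 405/Em 525), then BugLite luciferase luminescence = Nrf2 activity.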
# % is set by controls: 0 for no effect and ±100 for the full control effect; potency is the fitted concentration of half-maximal effect.
Compound,Potency,"activity change, negative = inhibition"
COc1ccc(S(=O)(=O)NCC(c2ccco2)N2CCc3ccccc3C2)cc1 (configuration not stated),"inconclusive: 23.1 µM [falling, single point]",
O=C(COc1ccc2c(c1)OCO2)Nc1ccccc1F,"inconclusive: 2.91 µM [activator, partial curve]",
CN(CC(=O)Nc1ccc(S(=O)(=O)N2CCCC2)cc1)Cc1ccc(Cl)c(Cl)c1,"inconclusive: 29.1 µM [falling, single point]",
COc1ccc(NC(=O)CN(C)C(=O)Cc2ccc(S(=O)(=O)N3CCOCC3)s2)cc1,inactive,
CCCCCCC[C@@H](C/C=C/CCC(=O)N(C)C/C(=C/Cl)C/C(=C\C(=O)N1CC(OC)=CC1=O)OC)OC,"inconclusive: 3.26 µM [falling, partial curve, poor fit]",
CCN1CCN(c2c(S(=O)(=O)c3ccc(C)c(C)c3)cnc3cc(OC)c(OC)cc23)CC1,inactive,
CCCCOC(=O)c1c(C)oc2ccc(NS(=O)(=O)c3ccc4c5c(cccc35)C(=O)N4)cc12,"inconclusive: 18.4 µM [falling, partial curve]",
O=C(NCC1CCCO1)c1cc2n(n1)C(C(F)(F)F)CC(c1ccc(Br)cc1)N2 (configuration not stated),"inconclusive: 9.2 µM [falling, partial curve, poor fit]",
COc1cccc2c1Oc1ncccc1N(C(=O)Nc1ccc(F)c(Cl)c1)C2,inactive,
N#CCC(=O)N/N=C\c1ccc(OC/C=C/c2ccccc2)cc1,inactive,
O=C(Nc1ccccc1)N1CCN(c2cccc(C(F)(F)F)c2)CC1,active: 23.1 µM,
CC(C)N(Cc1nc(-c2ccccc2)no1)C(=O)c1ccc([N+](=O)[O-])cc1,"inconclusive: 16.4 µM [falling, single point]",
CCCn1c(N)c(C(=O)CSc2nc3ccccc3s2)c(=O)[nH]c1=O,"inconclusive: 14.6 µM [activator, single point]",
S=c1[nH]nc(COc2ccccc2)n1/N=C/c1ccc(Br)s1,"inconclusive: 29.1 µM [falling, single point]",
COc1ccc(NC(=O)c2ccc(-c3nc(CSc4ccccc4)c(C)o3)cc2)cc1OC,"inconclusive: 11.6 µM [falling, partial curve, poor fit]",
COc1ccc(-c2nc3ccccc3c(=O)n2Cc2ccccc2)cc1CNc1ccc(NC(C)=O)cc1,inactive,
O=C(Nc1nc2c(cc3c4c(cccc42)CC3)s1)c1ccccc1Cl,"inconclusive: 29.1 µM [activator, single point]",
Cc1cc(C)cc(NS(=O)(=O)c2ccc3c(c2)NC(=O)C(C)S3)c1 (configuration not stated),"inconclusive: 25.9 µM [activator, single point]",
CCOC(=O)c1cc2c(nc1NC(=S)NCc1ccccc1)CCCC2,"inconclusive: 23.1 µM [activator, single point]",
Cc1ccc(N2CCN(C(=O)Nc3cccc([N+](=O)[O-])c3)CC2C)cc1 (configuration not stated),"inconclusive: 29.1 µM [falling, single point]",
Cc1ccc(-c2nnc(-c3cccc4ccccc34)o2)cc1,"inconclusive: 1.84 µM [activator, full curve]",
COc1ccc(C(=O)NC(=S)Nc2ccc(Cl)c(C(=O)O)c2)cc1,"inconclusive: 23.1 µM [activator, single point]",
CC(C)(C)Cc1nnc(NC(=O)c2ccc([N+](=O)[O-])cc2)s1,"inconclusive: 7.31 µM [activator, partial curve]",

# Filtered by structure, the entries above containing sulfur
Compound,Potency,"activity change, negative = inhibition"
COc1ccc(S(=O)(=O)NCC(c2ccco2)N2CCc3ccccc3C2)cc1 (configuration not stated),"inconclusive: 23.1 µM [falling, single point]",
CN(CC(=O)Nc1ccc(S(=O)(=O)N2CCCC2)cc1)Cc1ccc(Cl)c(Cl)c1,"inconclusive: 29.1 µM [falling, single point]",
COc1ccc(NC(=O)CN(C)C(=O)Cc2ccc(S(=O)(=O)N3CCOCC3)s2)cc1,inactive,
CCN1CCN(c2c(S(=O)(=O)c3ccc(C)c(C)c3)cnc3cc(OC)c(OC)cc23)CC1,inactive,
CCCCOC(=O)c1c(C)oc2ccc(NS(=O)(=O)c3ccc4c5c(cccc35)C(=O)N4)cc12,"inconclusive: 18.4 µM [falling, partial curve]",
CCCn1c(N)c(C(=O)CSc2nc3ccccc3s2)c(=O)[nH]c1=O,"inconclusive: 14.6 µM [activator, single point]",
S=c1[nH]nc(COc2ccccc2)n1/N=C/c1ccc(Br)s1,"inconclusive: 29.1 µM [falling, single point]",
COc1ccc(NC(=O)c2ccc(-c3nc(CSc4ccccc4)c(C)o3)cc2)cc1OC,"inconclusive: 11.6 µM [falling, partial curve, poor fit]",
O=C(Nc1nc2c(cc3c4c(cccc42)CC3)s1)c1ccccc1Cl,"inconclusive: 29.1 µM [activator, single point]",
Cc1cc(C)cc(NS(=O)(=O)c2ccc3c(c2)NC(=O)C(C)S3)c1 (configuration not stated),"inconclusive: 25.9 µM [activator, single point]",
CCOC(=O)c1cc2c(nc1NC(=S)NCc1ccccc1)CCCC2,"inconclusive: 23.1 µM [activator, single point]",
COc1ccc(C(=O)NC(=S)Nc2ccc(Cl)c(C(=O)O)c2)cc1,"inconclusive: 23.1 µM [activator, single point]",
CC(C)(C)Cc1nnc(NC(=O)c2ccc([N+](=O)[O-])cc2)s1,"inconclusive: 7.31 µM [activator, partial curve]",

# Additional compounds.

Compound,Potency,"activity change, negative = inhibition"
CCn1c(C(=O)N2CCC(C(=O)NCCc3ccc(OC)cc3OC)CC2)cc2sccc21,"inconclusive: 29.1 µM [falling, single point]",
CC(=O)N=c1sc2cc(C)ccc2n1C,"inconclusive: 18.4 µM [activator, single point]",
CCCCC(=O)NC(=S)Nc1cccc(Cl)c1N1CCCCC1,inactive,
COC(=O)c1ccccc1NC(=O)c1cccc(NC(=O)CSCc2ccccc2)c1C,"inconclusive: 2.06 µM [falling, full curve, poor fit]",
CS(=O)(=O)N(CC(=O)N1CCN(c2ccccc2)CC1)Cc1ccc(Cl)cc1,"inconclusive: 20.6 µM [falling, single point]",
FC(F)(F)c1nc(NCc2cccnc2)c2ccccc2n1,"inconclusive: 20.6 µM [falling, single point]",
COc1nnc(-c2ccc(N3CCOCC3)c(NC(=O)c3ccc(C)cc3)c2)c2ccccc12,"inconclusive: 4.11 µM [falling, partial curve, poor fit]",
CCCCOc1ccc(C(=O)CCN2CCOCC2)cc1,inactive,
CCCn1c(-c2ccc(S(=O)(=O)N3CCOCC3)cc2)csc1=Nc1ccc(OCC)cc1,"inconclusive: 4.11 µM [falling, full curve, poor fit]",
CN(C)S(=O)(=O)N1CCN(c2ccccc2)CC1,inactive,
Cc1c(C(=O)Nc2nnc(C3CC3)s2)oc2ccccc12,"inconclusive: 23.1 µM [activator, single point]",
Cc1c(C(=O)N2c3ccccc3Sc3ccccc32)cccc1[N+](=O)[O-],"inconclusive: 20.6 µM [falling, partial curve, poor fit]",
CCCSCCCNC(=O)C1CCN(c2nn3cc(-c4ccc(F)cc4)nc3s2)CC1,inactive,
CCOC(=O)c1c(NC(C)=O)sc2c1CCC(C=O)=C2Sc1ccccc1,active: 20.6 µM,
CCNc1oc(-c2ccc(OC)cc2)nc1S(=O)(=O)c1ccc(Br)cc1,"inconclusive: 10.3 µM [falling, partial curve]",
COc1ccc(/C=N/OCC(=O)N=Nc2c(O)[nH]c3ccc(Br)cc23)cc1,"inconclusive: 29.1 µM [falling, partial curve, poor fit]",
COc1ccc(-c2cc(-c3ccc(OC)cc3)c(C#N)c(SC)n2)cc1,"inconclusive: 32.6 µM [falling, partial curve, poor fit]",
COCc1cc(C)nc(SCC(=O)Nc2nc(C)cs2)c1C#N,"inconclusive: 20.6 µM [activator, partial curve]",
Cc1ccc(NC(=S)Nc2ccc3cn[nH]c3c2)cc1,"inconclusive: 14.6 µM [activator, partial curve, poor fit]",
C=CCOC(=O)C(C#N)c1nc2ccccc2nc1N1CCN(c2ccccc2OC)CC1 (configuration not stated),inactive,
C=C(C)COc1ccc(-c2n[nH]c(C)c2-c2ccc(Br)cc2)c(O)c1,inactive,
Cc1ccc(NS(=O)(=O)c2ccc(C)c(NC(=O)COc3ccc4ccccc4c3)c2)c(C)c1,"inconclusive: 29.1 µM [falling, single point]",
CCOc1ccc(-n2c(SCC(N)=O)nc3c([nH]c4ccccc43)c2=O)cc1,"inconclusive: 23.1 µM [falling, single point]",

Compound,Potency,"activity change, negative = inhibition"
Cc1ccc(S(=O)(=O)N2CCN(C(=O)CNC(=O)c3ccc(Cl)cc3)CC2)cc1,active: 20.6 µM,
CCn1c(SCC(=O)Nc2nccs2)nnc1-c1ccc(S(=O)(=O)N2CCCCC2)cc1,inactive,
COc1ccc(NC(=O)C2CCN(c3nc(-c4ccc(OC)cc4)no3)CC2)cc1,inactive,
CCc1cccc(NC(=O)Nc2csc3c2CCCC3)c1,inactive,
COc1ccc(-c2csc(NC(=O)CSc3nnnn3C)n2)c(OC)c1,"inconclusive: 2.31 µM [falling, full curve, poor fit]",
Cc1ccc(NC(=O)CNC(=O)c2cccc(C)c2)nc1,"inconclusive: 29.1 µM [falling, single point]",
COc1cccc(NC(=O)CSC2=NN3CCCC(=O)N=C3S2)c1,"inconclusive: 9.2 µM [falling, partial curve]",
COc1ccc(-n2nnnc2SCC(=O)c2ccc(O)c(O)c2)cc1,"inconclusive: 20.6 µM [falling, partial curve, poor fit]",
NNc1nnc(-c2ccccc2)c(-c2ccccc2)n1,"inconclusive: 29.1 µM [falling, single point]",
CCCCC(=O)/C=C/n1c(=S)oc2ccccc21,"inconclusive: 11.6 µM [activator, partial curve]",
Cc1ccc(N(CC(=O)NCCc2ccccc2)S(=O)(=O)N(C)C)cc1,inactive,
CCN(CC)C(=O)c1cc2c(=O)c3cc(Cl)ccc3oc2nc1C,inactive,
COc1cccc(NC(=O)CNC(=O)Cn2c(C)cc3ccccc3c2=O)c1,,inactive: 5.98% [at 9.27 µM]
CCOc1ccc(C2c3c(oc4ccccc4c3=O)C(=O)N2CCCN2CCOCC2)cc1OCC (configuration not stated),inactive,
COc1ccc(NC(=O)c2cc(F)cc(F)c2)cc1S(=O)(=O)N1CCCCC1,"inconclusive: 23.1 µM [falling, single point]",
Cc1nc2ccc(NC(=O)c3cccs3)cc2s1,inactive,
Cc1ccc(C)n1-c1nnc(N2CCCC(C(=O)Nc3ccc(C(C)C)cc3)C2)s1 (configuration not stated),"inconclusive: 29.1 µM [activator, single point]",
CN(c1ccccc1)S(=O)(=O)c1cccc(NC(=O)CN2C(=O)NC3(CCCCC3)C2=O)c1,"inconclusive: 16.4 µM [falling, partial curve, poor fit]",
Cc1nn(S(=O)(=O)c2cccc([N+](=O)[O-])c2)c(C)c1Br,"inconclusive: 1.3 µM [falling, partial curve, poor fit]",
CCOC(=O)CCc1c(C)nc(SCC(=O)O)c(C#N)c1C,"inconclusive: 2.91 µM [activator, partial curve, poor fit]",
COc1ccc(-c2csc(NC(=O)c3cc(=O)c4ccccc4o3)n2)cc1OC,"inconclusive: 0.092 µM [falling, full curve, poor fit]",
